Only a part is listed here, and it is no random draw. At the low end of the ranking the order means little.
Columns and labels:
Test in all cases: DAPPL (digital affinity profiling via proximity ligation, sequencing)
Conditions in all cases: 10 mM Tris-HCl pH 7.5, 50 mM NaCl, 1 mM DTT, 4% glycerol, room temperature, 30 min; GST-TFs on glutathione beads, 16-mer random dsDNA library, 0.1% …; high values mean tight binding; double strand, one strand shown; scale: fold enrichment (6-mer frequency, TF over GST control)
ELK1 = target: T1, ELK1 (UniProt P19419)
T1 sequence: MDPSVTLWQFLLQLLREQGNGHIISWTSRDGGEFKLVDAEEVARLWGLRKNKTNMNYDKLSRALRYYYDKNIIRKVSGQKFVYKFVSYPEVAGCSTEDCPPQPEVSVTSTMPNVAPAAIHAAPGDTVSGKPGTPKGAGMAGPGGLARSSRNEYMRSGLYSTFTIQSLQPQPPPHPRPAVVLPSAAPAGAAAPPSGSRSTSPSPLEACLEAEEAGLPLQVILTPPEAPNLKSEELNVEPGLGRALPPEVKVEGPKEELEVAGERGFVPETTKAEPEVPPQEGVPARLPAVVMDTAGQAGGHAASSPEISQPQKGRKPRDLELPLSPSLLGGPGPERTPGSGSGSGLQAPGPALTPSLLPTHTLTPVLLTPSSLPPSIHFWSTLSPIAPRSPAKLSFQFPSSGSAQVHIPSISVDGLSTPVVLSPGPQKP

ETS2 = target: T2, ETS2 (UniProt P15036)
T2 sequence: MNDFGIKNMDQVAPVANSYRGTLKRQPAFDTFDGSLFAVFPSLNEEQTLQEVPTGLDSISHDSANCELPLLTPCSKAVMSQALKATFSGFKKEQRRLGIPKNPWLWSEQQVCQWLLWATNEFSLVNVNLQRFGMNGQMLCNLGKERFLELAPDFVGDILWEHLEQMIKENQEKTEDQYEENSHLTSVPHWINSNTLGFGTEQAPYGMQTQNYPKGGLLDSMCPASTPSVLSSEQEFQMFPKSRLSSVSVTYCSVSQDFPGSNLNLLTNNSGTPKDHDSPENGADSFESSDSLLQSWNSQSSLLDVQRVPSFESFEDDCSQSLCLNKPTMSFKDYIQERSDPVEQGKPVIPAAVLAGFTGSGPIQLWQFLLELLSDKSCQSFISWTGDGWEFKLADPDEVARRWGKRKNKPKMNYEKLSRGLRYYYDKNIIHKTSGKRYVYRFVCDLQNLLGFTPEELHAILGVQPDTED

ETV3 = target: T3, ETV3 (UniProt P41162-2)
T3 sequence: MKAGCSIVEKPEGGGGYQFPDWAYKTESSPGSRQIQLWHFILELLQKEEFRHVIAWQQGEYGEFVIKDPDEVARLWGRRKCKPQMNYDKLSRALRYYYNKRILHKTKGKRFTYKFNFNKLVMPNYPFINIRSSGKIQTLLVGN

ELK3 = target: T4, ELK3 (UniProt P41970)
T4 sequence: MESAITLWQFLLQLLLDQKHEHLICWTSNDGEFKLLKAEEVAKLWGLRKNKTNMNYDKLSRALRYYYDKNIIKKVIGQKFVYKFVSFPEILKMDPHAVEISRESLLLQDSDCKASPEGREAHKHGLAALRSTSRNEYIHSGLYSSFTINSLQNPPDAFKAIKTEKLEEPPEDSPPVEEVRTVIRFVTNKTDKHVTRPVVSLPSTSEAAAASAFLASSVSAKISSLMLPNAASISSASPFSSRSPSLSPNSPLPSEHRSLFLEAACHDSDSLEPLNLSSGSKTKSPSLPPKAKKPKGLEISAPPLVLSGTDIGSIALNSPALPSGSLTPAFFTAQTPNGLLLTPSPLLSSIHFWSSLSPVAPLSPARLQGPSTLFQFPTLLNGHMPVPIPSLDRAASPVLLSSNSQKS

Row | Sequence | binding signal (ELK1) | binding signal (ETS2) | binding signal (ETV3) | binding signal (ELK3)
1 | GTGTAC | 0.976 | 0.867 | 0.916 | –
2 | TAGAAC | 0.988 | 0.978 | 0.989 | 1.03
3 | GTGGTT | 0.909 | 0.9 | 0.868 | –
4 | GGCTCG | 0.975 | 0.907 | 0.962 | 0.97
5 | AGAAGT | 0.987 | 0.973 | 1.01 | –
6 | GTGGCC | 0.987 | 1.01 | 0.967 | –
7 | CCAGCA | 0.9 | 0.94 | 0.845 | –
8 | AGCATG | 0.914 | 0.958 | 0.942 | 0.979
9 | TCGTTA | 0.96 | 0.977 | 0.935 | 0.951
10 | CTAGCC | 0.943 | 0.981 | 0.955 | –
11 | TATGAC | 1.34 | 1.31 | 1.2 | –
12 | ACATAG | 0.956 | 1.05 | 0.989 | –
13 | CTCAGT | 1.21 | 1.1 | 1.24 | –
14 | TGGTTG | 1.02 | 1.08 | 0.973 | –
15 | ATTCTC | 1.27 | 1.19 | 1.17 | –
16 | GACTCG | 0.85 | 0.834 | 0.842 | 0.941
17 | CCACGT | 0.945 | 0.927 | 0.964 | –
18 | AAGGCC | 0.909 | 0.96 | 0.961 | 0.982
19 | GTTGGC | 0.904 | 0.737 | 0.89 | 0.84
20 | GTACTG | 1.02 | 0.993 | 1.11 | 1.08
21 | GTCCGC | 0.967 | 0.99 | 1.03 | –
22 | GTCACG | 0.984 | 0.959 | 0.95 | –
23 | TTGGCG | 0.875 | 0.924 | 0.916 | 0.891
24 | GAAAAC | 0.997 | 1.11 | 0.999 | 0.952
25 | CTGGGG | 0.823 | 0.926 | 0.769 | 0.83

Row | Sequence | binding signal (ELK1) | binding signal (ETS2) | binding signal (ETV3) | binding signal (ELK3)
26 | TAGGAT | 0.958 | 1.03 | 0.982 | –
27 | GTGCTG | 0.853 | 0.868 | 0.873 | 0.849
28 | CGACAG | 0.925 | 0.992 | 0.883 | 0.89
29 | GCAGAT | 0.946 | 0.899 | 0.944 | 0.892
30 | CTAAGG | 0.955 | 0.922 | 0.936 | 0.87
31 | CCGACA | 1.18 | 1.26 | – | 1.16
32 | AGATGG | 0.823 | 0.826 | 0.876 | 0.821
33 | AGGTGT | 0.916 | 0.832 | 0.866 | 0.673
34 | AAACAG | 0.949 | 0.989 | – | 0.982
35 | GATTTA | 0.888 | 1 | 0.997 | 1.08
36 | TGGCGT | 0.906 | 0.913 | 0.92 | 0.942
37 | CTAGGA | 0.801 | 0.893 | 0.996 | 0.913
38 | ATTCGG | 0.881 | 0.875 | 1.02 | 0.879
39 | GTATAA | 1.21 | 1.08 | – | 0.987
40 | CGAAAT | 0.99 | 0.984 | – | 0.952
41 | GAGCTT | 0.98 | 0.994 | – | 1.02
42 | TGTAGA | 0.937 | 0.879 | 0.928 | 0.929
43 | GATAGT | 0.759 | 0.8 | 0.864 | 0.874
44 | TGTCAG | 0.95 | 0.897 | 0.922 | 0.861
45 | ACGCCA | 0.845 | 0.884 | 0.94 | 0.828
46 | AGCACG | 0.89 | 0.932 | 0.892 | 0.823
47 | GTACAG | 0.999 | 0.969 | 0.961 | 0.854
48 | AGAACT | 0.915 | 0.888 | 0.918 | 0.978
49 | AATGTG | 0.973 | 0.982 | 0.942 | 0.925
50 | TACGGT | 0.976 | 0.953 | 0.879 | 1.11

Record cards, from the list above.
TACGGT reads binding signal (ELK1): 0.976; binding signal (ETS2): 0.953; binding signal (ETV3): 0.879; binding signal (ELK3): 1.11
ACGCCA reads binding signal (ELK1): 0.845; binding signal (ETS2): 0.884; binding signal (ETV3): 0.94; binding signal (ELK3): 0.828

Next results follow.

Row | Sequence | binding signal (ELK1) | binding signal (ETS2) | binding signal (ETV3) | binding signal (ELK3)
51 | GGTCCA | 0.888 | 0.957 | 0.909 | 0.873
52 | GGGCAT | 0.95 | 0.899 | 0.858 | 0.853
53 | GTAAGC | 0.9 | 0.993 | 0.941 | 0.868
54 | AGACTC | 0.88 | 0.96 | 0.888 | 0.91
55 | CGACGG | 0.937 | 0.982 | – | 0.987
56 | GGACTC | 0.976 | 0.994 | – | 1.04
57 | GACTTA | 0.999 | 0.965 | – | 0.838
58 | TCAGAC | 0.917 | 0.865 | 0.883 | 0.795
59 | AAAGGC | 0.942 | 1 | 0.951 | 0.941
60 | CTGTGG | 0.835 | 0.815 | 0.835 | 0.891
61 | CATAAT | 0.983 | 0.99 | 0.986 | 0.971
62 | CAGTTC | 1.05 | 0.991 | – | 0.968
63 | CTTGAG | 0.938 | 0.875 | 0.926 | 0.981
64 | GTGATG | 0.935 | 0.885 | 0.886 | 0.906
65 | TGGCGC | 0.834 | 0.942 | 0.925 | 0.828
66 | GCCATC | 0.963 | 0.942 | 0.962 | 0.888
67 | TTGCCA | 0.988 | 1.05 | – | 1.05
68 | TTGCAA | 1.28 | – | 1.18 | –
69 | CCCGAA | 1.26 | – | 1.33 | –
70 | AGGCCC | 0.909 | 0.926 | – | 0.93
71 | ATAAGG | 1.01 | 0.995 | – | 1.19
72 | GGTATG | 1.03 | 0.927 | – | 0.997
73 | ATCCGT | 0.967 | 0.969 | – | 0.939

In a second layout: entries from further up.
Row	Sequence	binding signal (ELK1)	binding signal (ETS2)	binding signal (ETV3)	binding signal (ELK3)
68	TTGCAA	1.28	–	1.18	–
69	CCCGAA	1.26	–	1.33	–

Reference: article PMC7862700
